Experimental data taken from patent US10563263B2, “Genetic polymorphisms associated with statin response and cardiovascular diseases, methods of detection and uses thereof” (CELERA CORPORATION, priority 2010, dated 2020).
The source gives many values for each of these; only a part stands here.

Test system: CHD
Experiment: Meta-analysis of CARE and WOSCOPS combined, synergy index, CHD endpoint
Format: in vivo, human
From the text: Tables 4-5 provide meta-analyses of CARE and WOSCOPS combined (2nd section of each table) for two endpoints (CHD and CVD) and three genetic models (dominant, recessive, and additive), as well as logistic regression analyses of CARE (3rd section of each table) and WOSCOPS (4th section of each table) individually.
Tables 12 and 17 provide results of meta-analysis of the CARE and WOSCOPS sample sets combined by direct genotyping and by imputing genotypes.
“P” indicates the p-value, and “P(R)” (or “P.R.”) indicates the p-value random effect. Both of these are p-values corresponding to a statistical test of whether the combined synergy index is equal to one but use different assumptions to derive the p-value. “P” is calculated using a fixed effects model, and “P(R)” is calculated using a random effects model.
“OR” indicates the odds ratio (synergy index) calculated from a fixed effects model, and “OR(R)” (or “OR.R.”) indicates the odds ratio (synergy index) calculated from a random effects model.

[1] = rs36071725 allele C ADDITIVE Genotyped
[2] = rs36071725 allele C GENOTYPIC Genotyped
[3] = rs41395945 allele G ADDITIVE Imputed
[4] = rs41395945 allele G DOMINANT Imputed

Compound: CC[C@H](C)C(=O)O[C@H]1C[C@H](O)C=C2C=C[C@H](C)[C@H](CC[C@@H](O)C[C@@H](O)CC(=O)O)[C@H]21 [Pravastatin, pravastatin]
- OR(R) (rs12831292 allele G DOMINANT Imputed, random effect): 0.6038
- OR (rs13012636 allele G RECESSIVE Imputed, fixed effect): 1.7676
- OR(R) (rs13012636 allele G RECESSIVE Imputed, random effect): 1.7676
- OR (rs13038146 allele C ADDITIVE Imputed, fixed effect): 1.3722
- OR(R) (rs13038146 allele C ADDITIVE Imputed, random effect): 1.3722
- OR (rs13038146 allele C GENOTYPIC Imputed, fixed effect): 1.9531
- OR(R) (rs13038146 allele C GENOTYPIC Imputed, random effect): 1.9531
- OR (rs13038146 allele C RECESSIVE Imputed, fixed effect): 1.7021
- OR(R) (rs13038146 allele C RECESSIVE Imputed, random effect): 1.7021
- OR (rs13089860 allele A DOMINANT Imputed, fixed effect): 0.6379
- OR(R) (rs13089860 allele A DOMINANT Imputed, random effect): 0.6379
- OR (rs13102419 allele T RECESSIVE Imputed, fixed effect): 1.7512
- OR(R) (rs13102419 allele T RECESSIVE Imputed, random effect): 1.7512
- Meta-analysis OR (rs13137776 allele G vs A (ref)): 0.70
- OR (rs13194907 allele A ADDITIVE Imputed, fixed effect): 1.9871
- OR(R) (rs13194907 allele A ADDITIVE Imputed, random effect): 1.9871
- OR (rs13194907 allele A DOMINANT Imputed, fixed effect): 2.0957
- OR(R) (rs13194907 allele A DOMINANT Imputed, random effect): 2.0957
- OR (rs13195745 allele A ADDITIVE Imputed, fixed effect): 1.9837
- OR(R) (rs13195745 allele A ADDITIVE Imputed, random effect): 1.9837
- OR (rs13195745 allele A DOMINANT Imputed, fixed effect): 2.0917
- OR(R) (rs13195745 allele A DOMINANT Imputed, random effect): 2.0917
- OR (rs13265054 allele T DOMINANT Imputed, fixed effect): 0.6362
- OR(R) (rs13265054 allele T DOMINANT Imputed, random effect): 0.6362
- OR (rs13273002 allele A GENOTYPIC Imputed, fixed effect): 0.2714
- OR(R) (rs13273002 allele A GENOTYPIC Imputed, random effect): 0.2714
- OR (rs13282131 allele C ADDITIVE Imputed, fixed effect): 1.3612
- OR(R) (rs13282131 allele C ADDITIVE Imputed, random effect): 1.3612
- OR (rs13282131 allele C GENOTYPIC Imputed, fixed effect): 1.8797
- OR(R) (rs13282131 allele C GENOTYPIC Imputed, random effect): 1.8797
- OR (rs13282131 allele C RECESSIVE Imputed, fixed effect): 1.6011
- OR(R) (rs13282131 allele C RECESSIVE Imputed, random effect): 1.6011
- OR (rs13387284 allele A DOMINANT Imputed, fixed effect): 0.5856
- OR(R) (rs13387284 allele A DOMINANT Imputed, random effect): 0.5856
- OR (rs13401462 allele C DOMINANT Imputed, fixed effect): 1.8734
- OR(R) (rs13401462 allele C DOMINANT Imputed, random effect): 1.8734
- OR (rs13409045 allele T ADDITIVE Imputed, fixed effect): 0.7108
- OR(R) (rs13409045 allele T ADDITIVE Imputed, random effect): 0.7108
- Meta-analysis OR (rs13431868 allele A vs G (ref)): 1.59
- OR (rs16938626 allele G DOMINANT Imputed, fixed effect): 0.6242
- OR(R) (rs16938626 allele G DOMINANT Imputed, random effect): 0.6242
- OR (rs16964300 allele G ADDITIVE Imputed, fixed effect): 0.6665
- OR(R) (rs16964300 allele G ADDITIVE Imputed, random effect): 0.6665
- OR (rs16964300 allele G DOMINANT Imputed, fixed effect): 0.6299
- OR(R) (rs16964300 allele G DOMINANT Imputed, random effect): 0.618
- OR (rs16986282 allele G DOMINANT Imputed, fixed effect): 0.4237
- OR(R) (rs16986282 allele G DOMINANT Imputed, random effect): 0.4355
- OR (rs17007620 allele G ADDITIVE Imputed, fixed effect): 1.5131
- OR(R) (rs17007620 allele G ADDITIVE Imputed, random effect): 1.5131
- OR (rs17007620 allele G DOMINANT Imputed, fixed effect): 1.684
- OR(R) (rs17007620 allele G DOMINANT Imputed, random effect): 1.684
- OR (rs17014326 allele G DOMINANT Imputed, fixed effect): 0.6151
- OR(R) (rs17014326 allele G DOMINANT Imputed, random effect): 0.6151
- OR (rs17047957 allele C DOMINANT Imputed, fixed effect): 1.5018
- OR(R) (rs17047957 allele C DOMINANT Imputed, random effect): 1.5018
- OR (rs17073341 allele A ADDITIVE Imputed, fixed effect): 2.0963
- OR(R) (rs17073341 allele A ADDITIVE Imputed, random effect): 1.9757
- OR (rs17073341 allele A DOMINANT Imputed, fixed effect): 2.0915
- OR(R) (rs17073341 allele A DOMINANT Imputed, random effect): 1.9741
- OR (rs17138702 allele G ADDITIVE Imputed, fixed effect): 0.6037
- OR(R) (rs17138702 allele G ADDITIVE Imputed, random effect): 0.6037
- Meta-analysis OR (rs17138705 allele A vs G (ref)): 0.59
- OR (rs17189710 allele T ADDITIVE Imputed, fixed effect): 1.3762
- OR(R) (rs17189710 allele T ADDITIVE Imputed, random effect): 1.3762
- OR (rs17189710 allele T GENOTYPIC Imputed, fixed effect): 1.959
- OR(R) (rs17189710 allele T GENOTYPIC Imputed, random effect): 1.959
- OR (rs17189710 allele T RECESSIVE Imputed, fixed effect): 1.7043
- OR(R) (rs17189710 allele T RECESSIVE Imputed, random effect): 1.7043
- OR (rs17310176 allele T ADDITIVE Imputed, fixed effect): 0.6909
- OR(R) (rs17310176 allele T ADDITIVE Imputed, random effect): 0.6922
- OR (rs17310176 allele T DOMINANT Imputed, fixed effect): 0.6548
- OR(R) (rs17310176 allele T DOMINANT Imputed, random effect): 0.6669
- Meta-analysis OR (rs17347854 allele G vs A (ref)): 0.61
- OR (rs17358860 allele A DOMINANT Imputed, fixed effect): 0.6804
- OR(R) (rs17358860 allele A DOMINANT Imputed, random effect): 0.6804
- OR (rs17370541 allele T GENOTYPIC Imputed, fixed effect): 2.055
- OR(R) (rs17370541 allele T GENOTYPIC Imputed, random effect): 2.055
- OR (rs17370541 allele T RECESSIVE Imputed, fixed effect): 1.969
- OR(R) (rs17370541 allele T RECESSIVE Imputed, random effect): 1.969
- OR (rs17526574 allele G GENOTYPIC Imputed, fixed effect): 2.2297
- OR(R) (rs17526574 allele G GENOTYPIC Imputed, random effect): 2.2297
- OR (rs17530747 allele T DOMINANT Imputed, fixed effect): 0.6272
- OR(R) (rs17530747 allele T DOMINANT Imputed, random effect): 0.6272
- OR (rs17649114 allele C DOMINANT Imputed, fixed effect): 1.4394
- OR(R) (rs17649114 allele C DOMINANT Imputed, random effect): 1.4394
- Meta-analysis OR (rs17718867, A1 (non-ref) A, A2 (ref) G): 0.72
- Meta-analysis OR (rs17740227 allele G vs A (ref)): 1.70
- OR (rs17766172 allele A RECESSIVE Imputed, fixed effect): 0.4665
- OR(R) (rs17766172 allele A RECESSIVE Imputed, random effect): 0.4683
- Meta-analysis OR (rs33910446 allele A vs G (ref)): 2.24
- OR [1]: 1.4999
- OR(R) [1]: 1.4999
- OR [2]: 2.5235
- OR(R) [2]: 2.5053
- OR [3]: 1.8637
- OR(R) [3]: 1.8637
- OR [4]: 1.9054
- OR(R) [4]: 1.9054
